# Changes are numbered by the printed parent chain. Names and notes keep the numbering of the source. No constants are given. Whether binding was seen depends on the method and setting. Some results given as binding are weak or reduced against the parent protein; the word gives no strength.
# Amino acid sequences for entries named in this document (tags omitted). A change or cut given only in a name is not applied to a line headed by its entry.
# UniProt P40259: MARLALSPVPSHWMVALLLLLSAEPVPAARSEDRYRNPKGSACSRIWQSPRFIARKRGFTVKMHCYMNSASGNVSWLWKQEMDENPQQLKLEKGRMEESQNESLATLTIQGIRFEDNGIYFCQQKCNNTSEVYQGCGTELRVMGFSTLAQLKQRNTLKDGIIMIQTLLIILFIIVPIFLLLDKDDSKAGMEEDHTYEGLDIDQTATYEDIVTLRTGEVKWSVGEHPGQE
# B1: huMA79b graft variant, SEQ ID NO: 55 (Fab, name in Kabat numbering, V domains shown)
# VH: EVQLVESGGGLVQPGGSLRLSCAASGYPFRSYWIQWVRQAPGKGLEWVGEILPGGGDTNYNEIFKGRFTISADTSKNTAYLQMNSLRAEDTAVYYCTRRVPVYFDYWGQGTLVTVSS
# VL: DIQMTQSPSSLSASVGDRVTITCKASQSVDYDGDSFLNWYQQKPGKAPKLLIYAASNLESGVPSRFSGSGSGTDFTLTISSLQPEDFATYYCQQSNEDPLTFGQGTKVEIKR
# B2: huMA79b graft variant, SEQ ID NO: 56 (Fab, name in Kabat numbering, V domains shown)
# VH: B1 VH with R30T, Q35N
# VL: B1 VL
# B3: huMA79b graft variant, SEQ ID NO: 58 (Fab, name in Kabat numbering, V domains shown)
# VH: B1 VH with P28T, R30N, S31R, Q35N
# VL: B1 VL
# B4: huMA79b graft variant, SEQ ID NO: 59 (Fab, name in Kabat numbering, V domains shown)
# VH: B1 VH with P28S, R30K, Q35E
# VL: B1 VL
# B5: huMA79b graft variant, SEQ ID NO: 61 (Fab, name in Kabat numbering, V domains shown)
# VH: B1 VH with P28Y, R30T, Q35E
# VL: B1 VL
# B6: huMA79b graft variant, SEQ ID NO: 62 (Fab, name in Kabat numbering, V domains shown)
# VH: B1 VH with R30G, S31R, I34V, Q35N
# VL: B1 VL
# B7: huMA79b graft variant, SEQ ID NO: 63 (Fab, name in Kabat numbering, V domains shown)
# VH: B1 VH with P28T, R30K, S31K, Q35E
# VL: B1 VL
# B8: huMA79b graft variant, SEQ ID NO: 64 (Fab, name in Kabat numbering, V domains shown)
# VH: B1 VH with R30T
# VL: B1 VL
# B9: huMA79b graft variant, SEQ ID NO: 65 (Fab, name in Kabat numbering, V domains shown)
# VH: B1 VH with S31R, Q35E
# VL: B1 VL
# B10: huMA79b graft variant, SEQ ID NO: 66 (Fab, name in Kabat numbering, V domains shown)
# VH: B1 VH with F29V, R30G, S31R, Q35S
# VL: B1 VL
# B11: huMA79b graft variant, SEQ ID NO: 68 (Fab, name in Kabat numbering, V domains shown)
# VH: B1 VH with P28G, R30T, Q35S
# VL: B1 VL
# B12: huMA79b graft variant, SEQ ID NO: 69 (Fab, name in Kabat numbering, V domains shown)
# VH: B1 VH with P28T, R30T, I34L, Q35S
# VL: B1 VL
# B13: huMA79b graft variant, SEQ ID NO: 70 (S30T) (Fab, name in Kabat numbering, V domains shown)
# VH: B1 VH with P28T, R30T, Q35E
# VL: B1 VL
# B14: huMA79b graft variant, SEQ ID NO: 71 (Fab, name in Kabat numbering, V domains shown)
# VH: B1 VH with P28T, R30S, S31G, Q35N
# VL: B1 VL
# B15: huMA79b graft variant, SEQ ID NO: 72 (Fab, name in Kabat numbering, V domains shown)
# VH: B1 VH with P28T, S31R, Q35N
# VL: B1 VL
# B16: huMA79b graft variant, SEQ ID NO: 73 (Fab, name in Kabat numbering, V domains shown)
# VH: B1 VH with P28S, Q35N
# VL: B1 VL
# B17: huMA79b graft variant, SEQ ID NO: 74 (Fab, name in Kabat numbering, V domains shown)
# VH: B1 VH with P28S, S31R, Q35N
# VL: B1 VL
# B18: huMA79b graft variant, SEQ ID NO: 75 (Fab, name in Kabat numbering, V domains shown)
# VH: B1 VH with P28S, S31R, Q35E
# VL: B1 VL
# Molecular target: extracellular domain of human CD79b (huCD79becd) (human) (UniProt P40259)
# Experiment: phage selection on plate-bound antigen
row,Binder,binding
1,B1,binds
2,B2,binds
3,B3,binds
4,B4,binds
5,B5,binds
6,B6,binds
7,B7,binds
8,B8,binds
9,B9,binds
10,B10,binds
11,B11,binds
12,B12,binds
13,B13,binds
14,B14,binds
15,B15,binds
16,B16,binds
17,B17,binds
18,B18,binds
